# A number of entries come with more than one value. The list is limited to them. An entry can have further records. The records of an entry differ, and nothing given here explains why; dose, time, organism, isomer or construct need not be as stated for each record.
# The chains behind the UniProt entries cited, without tags or fusion partners.
# UniProt P52895, whole entry: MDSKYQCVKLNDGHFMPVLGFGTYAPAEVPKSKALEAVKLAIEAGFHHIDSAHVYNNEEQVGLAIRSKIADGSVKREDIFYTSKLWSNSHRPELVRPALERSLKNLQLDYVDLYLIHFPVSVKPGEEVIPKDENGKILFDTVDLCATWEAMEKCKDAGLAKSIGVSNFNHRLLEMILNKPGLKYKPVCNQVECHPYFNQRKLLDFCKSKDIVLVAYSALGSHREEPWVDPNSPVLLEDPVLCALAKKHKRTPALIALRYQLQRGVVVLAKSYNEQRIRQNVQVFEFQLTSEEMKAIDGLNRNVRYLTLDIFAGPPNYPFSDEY
# Target: AKR1C2 (Homo sapiens, UniProt P52895)
# Test: AKR1C2 inhibition assay (DHT to 3α-androstanediol)
# Details: 10 µM compound; mean ± SD
# Description: For enzymatic assays and inhibitor testing, all enzymes were cloned into bacterial or mammalian expression vectors. AKR1C3 and the human hydroxysteroid dehydrogenases HSD17B1, HSD17B2, HSD17B4 (SDR domain), HSD17B7, and HSD17B10 were cloned into a pGEX vector as described in [71, 72]. The coding sequences for AKR1C1, AKR1C2, and AKR1C4 were cloned by Gateway technology into the pcDNA3-N-MycDest vector according to the manufacturer’s instructions (Life Technologies, Carlsbad, CA, USA). The p11 plasmid coding for HSD17B14 (S205 variant) was a gift from Udo Opperman SGC Oxford, UK. For assays with HSD17B3, HEK293 cells stably expressing HSD17B3 were used. Enzymes were expressed in E. coli BL21 DE3 or E. coli BL21 DE3 Codon Plus RP (Stratagene, San Diego, CA, USA) or in HEK293 cells as described in [71, 72, 73]. Bacterial and cell pellets were stored at −20 °C and −80 °C, respectively, until use.
# Inhibition assays were carried out as described in [71, 74]. […] Radioactivity was detected by online scintillation counting by using a radioactivity monitor (LB506D, Berthold Technologies, Bad Wildbad, Germany). Conversion of substrates to products was determined by integration of the peak area of the substrate and product peaks in percent. […]
row,Inhibition of AKR1C2 at 10 µM in %,SMILES
1,39.9 ± 4.0% and not more than 42.3%,Cc1cccc(/C=C/C(=O)c2c(O)cc(O)cc2O)c1 [Compound 20]
2,38.5 ± 1.3% and not more than 42.3%,COc1ccc(/C=C/C(=O)c2c(O)cc(O)cc2O)cc1 [Compound 19]

# Reference: publication PMC8876231, “Analogues of Natural Chalcones as Efficient Inhibitors of AKR1C3” (Metabolites, 2022)
